From PubChem BioAssay AID435023 (Broad Institute, 2010)
The median lay at about -31%. This is one part of the list. Potency and affinity values are given separately. Entries without a call are filed as inconclusive in the source.

Amino acid sequences for entries named in this document (tags omitted). A change or cut given only in a name is not applied to a line headed by its entry.
UniProt Q9QR71: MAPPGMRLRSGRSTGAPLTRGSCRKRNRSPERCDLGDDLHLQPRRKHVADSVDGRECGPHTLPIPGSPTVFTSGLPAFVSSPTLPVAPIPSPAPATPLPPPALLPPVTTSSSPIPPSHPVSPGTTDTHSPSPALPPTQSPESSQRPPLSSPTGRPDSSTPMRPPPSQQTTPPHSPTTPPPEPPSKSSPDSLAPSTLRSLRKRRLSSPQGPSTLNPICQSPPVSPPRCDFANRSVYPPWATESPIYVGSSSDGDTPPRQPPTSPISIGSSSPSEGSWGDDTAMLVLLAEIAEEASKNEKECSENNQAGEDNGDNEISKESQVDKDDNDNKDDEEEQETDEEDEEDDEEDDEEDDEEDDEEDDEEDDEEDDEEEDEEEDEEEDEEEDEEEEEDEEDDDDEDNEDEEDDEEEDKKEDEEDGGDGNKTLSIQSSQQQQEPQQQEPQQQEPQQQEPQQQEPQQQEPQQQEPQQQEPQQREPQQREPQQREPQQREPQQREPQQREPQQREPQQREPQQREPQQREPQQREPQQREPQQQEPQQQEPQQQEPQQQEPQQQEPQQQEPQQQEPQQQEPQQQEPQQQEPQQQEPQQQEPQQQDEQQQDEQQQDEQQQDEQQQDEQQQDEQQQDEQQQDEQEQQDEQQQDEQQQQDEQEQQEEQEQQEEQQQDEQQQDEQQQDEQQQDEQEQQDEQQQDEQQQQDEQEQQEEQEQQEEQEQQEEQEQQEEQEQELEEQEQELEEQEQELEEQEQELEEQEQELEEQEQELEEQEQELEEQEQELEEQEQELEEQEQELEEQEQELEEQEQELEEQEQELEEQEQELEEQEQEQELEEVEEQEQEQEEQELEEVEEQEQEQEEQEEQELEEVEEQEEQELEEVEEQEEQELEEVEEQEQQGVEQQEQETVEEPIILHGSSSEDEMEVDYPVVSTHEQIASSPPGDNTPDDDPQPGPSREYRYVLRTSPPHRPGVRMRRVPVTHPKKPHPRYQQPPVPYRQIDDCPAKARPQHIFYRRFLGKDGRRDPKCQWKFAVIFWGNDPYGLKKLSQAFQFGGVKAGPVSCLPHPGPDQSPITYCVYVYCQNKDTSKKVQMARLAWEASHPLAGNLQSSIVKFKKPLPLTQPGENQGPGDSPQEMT

biological target: Protein LANA1 (Human herpesvirus 8 type P (isolate GK18)) (UniProt Q9QR71); assay: LANA–H2A/H2B histone binding inhibitors, dose response, biochemical, fluorescence polarization, cell-free, retest (AID 435023); conditions: LANA peptide-nucleosome binding; at 7.5 µM (top of the series) unless noted

Structure (SMILES) | activity change, negative = inhibition
CC(NCC(=O)Nc1ccccc1C(=O)NC1CC1)c1cccc(C(F)(F)F)c1 (configuration not stated) | -14.2%
CCOC(=O)C1(Cc2ccccc2)CCN(Cc2cccn2-c2nccs2)CC1 | 28.6%
CC(NC(=O)C(=O)NN=C1CCCCCCCCCCC1)c1ccccc1 (configuration not stated) | -25.4%
CC(C)C1N=C2c3ccccc3N=C(SCC(=O)c3ccc(O)c(O)c3)N2C1=O (configuration not stated) | -31.4%
COc1ccc(-n2c(O)c(/C=C3\C=Nc4ccc(Br)cc43)c(=O)[nH]c2=O)cc1 | -41.4%
COc1cccc(Cn2cc(C)cc(NC(=O)NCc3ccccc3)c2=O)c1 | -35.4%
CCOc1ccccc1OCCCCN1CCCC1 | -31.9%
O=C(CC(c1ccccc1)(c1ccccc1)c1ccccc1)N[C@@H](Cc1ccccc1)C(=O)O | 24.1%
CN1CCN(C(=O)C2=C[C@H](c3ccc(Br)cc3)C[C@H](OCCCCO)O2)CC1 | -7.26% [at 3.8 µM]
CCC(C(=O)NC1CC1)n1nc(C)c2c(C)n(-c3ccccc3)nc2c1=O (configuration not stated) | -59.6%
CCOc1ccccc1NC(=O)NCCN1CCCCC1 | -35.3%
CCOC(=O)C(C)On1c(-c2cccc(Cl)c2)nc2ccc([N+](=O)[O-])cc21 (configuration not stated) | 34.8%

Two entries from above, reformatted.
Structure (SMILES),"activity change, negative = inhibition"
CN1CCN(C(=O)C2=C[C@H](c3ccc(Br)cc3)C[C@H](OCCCCO)O2)CC1,-7.26% [at 3.8 µM]
CCC(C(=O)NC1CC1)n1nc(C)c2c(C)n(-c3ccccc3)nc2c1=O (configuration not stated),-59.6%
